# Experimental data published in publication PMC10312976.
# Sequences of proteins named here, by UniProt entry; tags and fusion partners are left off.
# UniProt P26599: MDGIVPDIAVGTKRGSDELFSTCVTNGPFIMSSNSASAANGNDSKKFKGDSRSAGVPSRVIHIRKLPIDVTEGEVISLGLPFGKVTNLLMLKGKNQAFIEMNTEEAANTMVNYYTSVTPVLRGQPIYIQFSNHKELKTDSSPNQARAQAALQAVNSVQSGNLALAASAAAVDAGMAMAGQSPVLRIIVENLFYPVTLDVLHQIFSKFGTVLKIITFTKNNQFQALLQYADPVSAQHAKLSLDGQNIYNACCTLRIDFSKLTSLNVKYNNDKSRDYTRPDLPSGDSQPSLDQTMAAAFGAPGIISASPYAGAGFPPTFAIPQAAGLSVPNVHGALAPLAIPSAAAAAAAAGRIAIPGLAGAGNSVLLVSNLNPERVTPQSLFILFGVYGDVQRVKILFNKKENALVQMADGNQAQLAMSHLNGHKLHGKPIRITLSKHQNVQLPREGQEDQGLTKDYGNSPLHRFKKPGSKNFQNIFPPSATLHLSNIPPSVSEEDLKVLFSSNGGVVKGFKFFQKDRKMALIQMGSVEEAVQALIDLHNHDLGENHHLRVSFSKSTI
# T1: Dbr1-FLAG (human) (UniProt Q9UK59)
# T1 sequence: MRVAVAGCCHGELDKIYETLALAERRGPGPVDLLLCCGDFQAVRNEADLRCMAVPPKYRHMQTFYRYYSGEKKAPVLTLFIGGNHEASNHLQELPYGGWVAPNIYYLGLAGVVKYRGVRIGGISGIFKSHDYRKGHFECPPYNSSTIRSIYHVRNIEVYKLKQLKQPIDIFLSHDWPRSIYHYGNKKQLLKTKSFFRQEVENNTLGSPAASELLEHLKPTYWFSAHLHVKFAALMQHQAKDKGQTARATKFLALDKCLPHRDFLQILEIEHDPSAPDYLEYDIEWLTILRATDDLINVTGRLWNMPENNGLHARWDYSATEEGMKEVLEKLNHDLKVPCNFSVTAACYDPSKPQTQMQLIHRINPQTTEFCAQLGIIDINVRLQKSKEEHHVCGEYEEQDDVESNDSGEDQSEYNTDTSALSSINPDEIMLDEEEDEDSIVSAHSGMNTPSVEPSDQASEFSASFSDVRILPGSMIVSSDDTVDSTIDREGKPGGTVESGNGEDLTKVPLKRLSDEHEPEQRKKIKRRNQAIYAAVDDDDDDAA
# T2: Dbr1-FLAG (human), Q9UK59
# T2 chain: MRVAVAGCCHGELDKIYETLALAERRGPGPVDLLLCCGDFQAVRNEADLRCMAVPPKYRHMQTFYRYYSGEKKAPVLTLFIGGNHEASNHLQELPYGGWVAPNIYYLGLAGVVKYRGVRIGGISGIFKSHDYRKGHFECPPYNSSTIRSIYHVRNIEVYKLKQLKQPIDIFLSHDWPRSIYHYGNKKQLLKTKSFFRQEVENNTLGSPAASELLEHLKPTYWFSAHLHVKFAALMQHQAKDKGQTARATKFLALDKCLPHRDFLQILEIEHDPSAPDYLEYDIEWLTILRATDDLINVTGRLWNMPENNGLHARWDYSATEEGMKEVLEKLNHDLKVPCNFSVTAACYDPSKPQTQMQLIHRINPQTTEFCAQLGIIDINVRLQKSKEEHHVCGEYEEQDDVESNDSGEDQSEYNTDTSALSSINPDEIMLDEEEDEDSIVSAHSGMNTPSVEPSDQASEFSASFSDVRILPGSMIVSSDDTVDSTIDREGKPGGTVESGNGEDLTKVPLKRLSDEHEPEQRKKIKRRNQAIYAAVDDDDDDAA
# What was measured:
# Experiment in all cases: affinity purification with mass spectrometry; lysate (1 ml of 1 mg/ml) of HEK293T cells transfected with Dbr1-FLAG, anti-FLAG M2 magnetic beads, eluted with 2x SDS-PAGE loading dye; un-transfected HEK293T cells as control; three dishes each
# Dbr1-FLAG (human) [1] = molecular target: T1, Dbr1-FLAG (human)
# Dbr1-FLAG (human) [2] = molecular target: T1, Dbr1-FLAG (human); remark: listed apart in the source
# [3] = molecular target: T2, Dbr1-FLAG (human), Q9UK59; settings: remark: other sources report otherwise
Molecule,binding (Dbr1-FLAG (human) [2]),other results
PTBP1 (from UniProt P26599 1-557),–,binding (Dbr1-FLAG (human) [1]): binds
"Cwf19L, the human homolog of yeast Drn1",–,binding (Dbr1-FLAG (human) [1]): binds
"PLRG1 (protein, UniProt O43660 1-514) MVEEVQKHSVHTLVFRSLKRTHDMFVADNGKPVPLDEESHKRKMAIKLRNEYGPVLHMPTSKENLKEKGPQNATDSYVHKQYPANQGQEVEYFVAGTHPYPPGPGVALTADTKIQRMPSESAAQSLAVALPLQTKADANRTAPSGSEYRHPGASDRPQPTAMNSIVMETGNTKNSALMAKKAPTMPKPQWHPPWKLYRVISGHLGWVRCIAVEPGNQWFVTGSADRTIKIWDLASGKLKLSLTGHISTVRGVIVSTRSPYLFSCGEDKQVKCWDLEYNKVIRHYHGHLSAVYGLDLHPTIDVLVTCSRDSTARIWDVRTKASVHTLSGHTNAVATVRCQAAEPQIITGSHDTTIRLWDLVAGKTRVTLTNHKKSVRAVVLHPRHYTFASGSPDNIKQWKFPDGSFIQNLSGHNAIINTLTVNSDGVLVSGADNGTMHLWDWRTGYNFQRVHAAVQPGSLDSESGIFACAFDQSESRLLTAEADKTIKVYREDDTATEETHPVSWKPEIIKRKRF",binds,–
"HNRNPL (protein, UniProt P14866 1-589) MSRRLLPRAEKRRRRLEQRQQPDEQRRRSGAMVKMAAAGGGGGGGRYYGGGSEGGRAPKRLKTDNAGDQHGGGGGGGGGAGAAGGGGGGENYDDPHKTPASPVVHIRGLIDGVVEADLVEALQEFGPISYVVVMPKKRQALVEFEDVLGACNAVNYAADNQIYIAGHPAFVNYSTSQKISRPGDSDDSRSVNSVLLFTILNPIYSITTDVLYTICNPCGPVQRIVIFRKNGVQAMVEFDSVQSAQRAKASLNGADIYSGCCTLKIEYAKPTRLNVFKNDQDTWDYTNPNLSGQGDPGSNPNKRQRQPPLLGDHPAEYGGPHGGYHSHYHDEGYGPPPPHYEGRRMGPPVGGHRRGPSRYGPQYGHPPPPPPPPEYGPHADSPVLMVYGLDQSKMNCDRVFNVFCLYGNVEKVKFMKSKPGAAMVEMADGYAVDRAITHLNNNFMFGQKLNVCVSKQPAIMPGQSYGLEDGSCSYKDFSESRNNRFSTPEQAAKNRIQHPSNVLHFFNAPLEVTEENFFEICDELGVKRPSSVKVFSGKSERSSSGLLEWESKSDALETLGFLNHYQMKNPNGPYPYTLKLCFSTAQHAS",binds,–
"SRSF7 (protein, UniProt Q16629 1-238) MSRYGRYGGETKVYVGNLGTGAGKGELERAFSYYGPLRTVWIARNPPGFAFVEFEDPRDAEDAVRGLDGKVICGSRVRVELSTGMPRRSRFDRPPARRPFDPNDRCYECGEKGHYAYDCHRYSRRRRSRSRSRSHSRSRGRRYSRSRSRSRGRRSRSASPRRSRSISLRRSRSASLRRSRSGSIKGSRYFQSPSRSRSRSRSISRPRSSRSKSRSPSPKRSRSPSGSPRRSASPERMD",binds,–
"XAB2 (protein, UniProt Q9HCS7 1-855) MVVMARLSRPERPDLVFEEEDLPYEEEIMRNQFSVKCWLRYIEFKQGAPKPRLNQLYERALKLLPCSYKLWYRYLKARRAQVKHRCVTDPAYEDVNNCHERAFVFMHKMPRLWLDYCQFLMDQGRVTHTRRTFDRALRALPITQHSRIWPLYLRFLRSHPLPETAVRGYRRFLKLSPESAEEYIEYLKSSDRLDEAAQRLATVVNDERFVSKAGKSNYQLWHELCDLISQNPDKVQSLNVDAIIRGGLTRFTDQLGKLWCSLADYYIRSGHFEKARDVYEEAIRTVMTVRDFTQVFDSYAQFEESMIAAKMETASELGREEEDDVDLELRLARFEQLISRRPLLLNSVLLRQNPHHVHEWHKRVALHQGRPREIINTYTEAVQTVDPFKATGKPHTLWVAFAKFYEDNGQLDDARVILEKATKVNFKQVDDLASVWCQCGELELRHENYDEALRLLRKATALPARRAEYFDGSEPVQNRVYKSLKVWSMLADLEESLGTFQSTKAVYDRILDLRIATPQIVINYAMFLEEHKYFEESFKAYERGISLFKWPNVSDIWSTYLTKFIARYGGRKLERARDLFEQALDGCPPKYAKTLYLLYAQLEEEWGLARHAMAVYERATRAVEPAQQYDMFNIYIKRAAEIYGVTHTRGIYQKAIEVLSDEHAREMCLRFADMECKLGEIDRARAIYSFCSQICDPRTTGAFWQTWKDFEVRHGNEDTIKEMLRIRRSVQATYNTQVNFMASQMLKVSGSATGTVSDLAPGQSGMDDMKLLEQRAEQLAAEAERDQPLRAQSKILFVRSDASREELAELAQQVNPEEIQLGEDEDEDEMDLEPNEVRLEQQSVPAAVFGSLKED",binds,–
"PRP19, Q9UMS4 1-504 (protein) MSLICSISNEVPEHPCVSPVSNHVYERRLIEKYIAENGTDPINNQPLSEEQLIDIKVAHPIRPKPPSATSIPAILKALQDEWDAVMLHSFTLRQQLQTTRQELSHALYQHDAACRVIARLTKEVTAAREALATLKPQAGLIVPQAVPSSQPSVVGAGEPMDLGELVGMTPEIIQKLQDKATVLTTERKKRGKTVPEELVKPEELSKYRQVASHVGLHSASIPGILALDLCPSDTNKILTGGADKNVVVFDKSSEQILATLKGHTKKVTSVVFHPSQDLVFSASPDATIRIWSVPNASCVQVVRAHESAVTGLSLHATGDYLLSSSDDQYWAFSDIQTGRVLTKVTDETSGCSLTCAQFHPDGLIFGTGTMDSQIKIWDLKERTNVANFPGHSGPITSIAFSENGYYLATAADDSSVKLWDLRKLKNFKTLQLDNNFEVKSLIFDQSGTYLALGGTDVQIYICKQWTEILHFTEHSGLTTGVAFGHHAKFIASTGMDRSLKFYSL",–,binding [3]: binds
"RBM22 (protein, UniProt Q9NW64 1-420) MATSLGSNTYNRQNWEDADFPILCQTCLGENPYIRMTKEKYGKECKICARPFTVFRWCPGVRMRFKKTEVCQTCSKLKNVCQTCLLDLEYGLPIQVRDAGLSFKDDMPKSDVNKEYYTQNMEREISNSDGTRPVGMLGKATSTSDMLLKLARTTPYYKRNRPHICSFWVKGECKRGEECPYRHEKPTDPDDPLADQNIKDRYYGINDPVADKLLKRASTMPRLDPPEDKTITTLYVGGLGDTITETDLRNHFYQFGEIRTITVVQRQQCAFIQFATRQAAEVAAEKSFNKLIVNGRRLNVKWGRSQAARGKEKEKDGTTDSGIKLEPVPGLPGALPPPPAAEEEASANYFNLPPSGPPAVVNIALPPPPGIAPPPPPGFGPHMFHPMGPPPPFMRAPGPIHYPSQDPQRMGAHAGKHSSP",binds,–

# Read-outs that look alike come from different tables or passages of the source. No constants are given. Whether binding was seen depends on the method and setting. Binding seen in cells or lysates may run through a third protein. These calls come from enrichment with a bait or labelling near it, and not all partners need be listed. Sequences can lack the tags named with a protein.
